The text below walks through data of PMC10041525, “New Dual Inhibitors of Bacterial Topoisomerases with Broad-Spectrum Antibacterial Activity and In Vivo Efficacy against Vancomycin-Intermediate Staphylococcus aureus” (Journal of Medicinal Chemistry, 2023).

The format of this data set is physicochemical. To be noted: solubility assay. As to the method: For the PBS, 2.38 g of disodium hydrogen phosphate dodecahydrate, 0.19 g of potassium dihydrogen phosphate, and 8.0 g of sodium chloride were added to distilled water (900 mL), and the solution was mixed overnight. […] Samples were prepared by weighing the exact mass of solid compounds (about 1 mg), and then, the appropriate volume of PBS was added to reach the final concentration of ∼1 mg/mL. […] The supernatant was diluted 3× with a 1:1 mixture of 0.1% TFA in water and acetonitrile and analyzed by HPLC. For the 7-point calibration curves, concentrated stock solutions of the compounds were prepared at concentrations of 10 and 0.5 mM in DMSO, which were diluted with a 1:1 mixture of 0.1% TFA in water and acetonitrile to the desired final concentrations and analyzed by HPLC. Results are given in μM as an average value of two independent experiments. For details on calibration curves, concentrations, analytical method, and HPLC method, see the Supporting Information.
Thermodynamic solubility assay
To determine thermodynamic solubility of compounds in PBS, calibration curves for the assayed compounds were prepared using seven concentrations. First, DMSO stock solutions of compounds at 10 mM and 0.5 mM concentration were prepared and then diluted (0.1% TFA in […]
Quality control (QC) samples were diluted from stock solutions with a 1:1 mixture of 0.1% TFA in water and acetonitrile to final concentrations of 60 µM, 20 µM, and 2 µM (6 µM, 2 µM, and 0.2 µM for 7f or 0.6 µM, 0.2 µM, and 0.02 µM for 7g).
Analytical reversed-phase UHPLC analyses were performed on Thermo Scientific Dionex UltiMate 3000 modular system (Thermo Fisher Scientific Inc., MA, USA). Waters Acquity UPLC® HSS C18 SB column (2.1 × 50 mm, 1.8 μm; Waters, Milford, MA, USA) was used at T […]
Method repeatability was determined by calculating the RSD from the separately prepared and analysed quality control samples (n = 3). […]
method (1 (or 0.1 or 0.01) µM to 100 (or 10 or 1) µM) was evaluated from the 7-point calibration […]
Solubility was determined in two independent experiments and results were calculated in […]

As to `Cc1[nH]c(C(=O)Nc2nc3c(N4CCOCC4)cc(C(=O)O)cc3s2)c(Cl)c1Cl` [7a, 2-(3,4-Dichloro-5-methyl-1H-pyrrole-2-carboxamido)-4-morpholinobenzo[d]thiazole-6-carboxylic Acid], the Recovery is 104.5%.

Take `Cc1[nH]c(C(=O)Nc2nc3c(N4[C@@H]5CC[C@H]4COC5)cc(C(=O)O)cc3s2)c(Cl)c1Cl` [7h, 4-((1R,5S)-3-Oxa-8-azabicyclo[3.2.1]octan-8-yl)-2-(3,4-dichloro-5-methyl-1H-pyrrole-2-carboxamido)benzo[d]thiazole-6-carboxylic Acid]: the Recovery was 103.3%.

The molecule `Cc1[nH]c(C(=O)Nc2nc3c(N4CCOC(C(F)(F)F)C4)cc(C(=O)O)cc3s2)c(Cl)c1Cl` (stereo not drawn) [7i, 2-(3,4-Dichloro-5-methyl-1H-pyrrole-2-carboxamido)-4-(2-(trifluoromethyl)morpholino)benzo[d]thiazole-6-carboxylic Acid] returned a Recovery of 119.7%.
